Results as given in paper PMC8125063.
No constants are given. Whether binding was seen depends on the method and setting. Binding seen in cells or lysates may run through a third protein. Some binding calls cover weakened binding; strength is not graded here.

By UniProt entry, the sequences of proteins in these tests, tags left out.
UniProt P11798: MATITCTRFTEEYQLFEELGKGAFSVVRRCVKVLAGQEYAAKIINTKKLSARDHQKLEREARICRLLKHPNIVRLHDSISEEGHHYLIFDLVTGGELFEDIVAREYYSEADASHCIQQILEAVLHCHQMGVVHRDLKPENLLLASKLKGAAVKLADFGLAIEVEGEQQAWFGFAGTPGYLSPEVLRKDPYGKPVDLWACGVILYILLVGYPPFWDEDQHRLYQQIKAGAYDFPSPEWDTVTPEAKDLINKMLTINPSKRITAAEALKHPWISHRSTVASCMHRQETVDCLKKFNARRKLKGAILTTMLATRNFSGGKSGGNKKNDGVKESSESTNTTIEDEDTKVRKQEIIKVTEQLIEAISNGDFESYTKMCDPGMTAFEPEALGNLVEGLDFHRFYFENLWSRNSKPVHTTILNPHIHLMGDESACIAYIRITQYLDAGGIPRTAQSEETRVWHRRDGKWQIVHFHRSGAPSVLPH

Biological target: T1, Fructose 1,6-bisphosphatase 2 (Fbp2), endogenous in mouse hippocampal neurons (mouse (endogenous in hippocampal neurons of C57BL6 mice)) (UniProt P70695)
T1 sequence: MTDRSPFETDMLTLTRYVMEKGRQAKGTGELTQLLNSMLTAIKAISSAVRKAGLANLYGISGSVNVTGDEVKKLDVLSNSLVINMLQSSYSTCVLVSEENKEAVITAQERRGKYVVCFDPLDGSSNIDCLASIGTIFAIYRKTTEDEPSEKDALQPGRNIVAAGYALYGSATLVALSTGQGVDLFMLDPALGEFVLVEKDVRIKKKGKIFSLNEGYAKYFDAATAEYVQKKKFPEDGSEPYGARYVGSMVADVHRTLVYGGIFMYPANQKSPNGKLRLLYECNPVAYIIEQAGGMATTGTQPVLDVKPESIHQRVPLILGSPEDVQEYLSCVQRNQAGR
Assay: proximity ligation; DuoLink In Situ Orange kit on cultured mouse hippocampal neurons with mouse anti-Fbp2 and rabbit anti-Camk2α; neurons untreated or treated with 100 µM CoCl2 and/or 5 µM iFbp for 24 h

binding: binds
Substance: Ca2+/calmodulin-dependent protein kinase 2α (Camk2α), endogenous in mouse hippocampal neurons (from UniProt P11798 1-478) (enzyme)
